The values that follow come from article PMC11036802.

Chains of the proteins cited; added tags and fusions are not shown. Lines headed by an entry give the natural chain unless they say otherwise; changes in a name come on top.
UniProt O96201: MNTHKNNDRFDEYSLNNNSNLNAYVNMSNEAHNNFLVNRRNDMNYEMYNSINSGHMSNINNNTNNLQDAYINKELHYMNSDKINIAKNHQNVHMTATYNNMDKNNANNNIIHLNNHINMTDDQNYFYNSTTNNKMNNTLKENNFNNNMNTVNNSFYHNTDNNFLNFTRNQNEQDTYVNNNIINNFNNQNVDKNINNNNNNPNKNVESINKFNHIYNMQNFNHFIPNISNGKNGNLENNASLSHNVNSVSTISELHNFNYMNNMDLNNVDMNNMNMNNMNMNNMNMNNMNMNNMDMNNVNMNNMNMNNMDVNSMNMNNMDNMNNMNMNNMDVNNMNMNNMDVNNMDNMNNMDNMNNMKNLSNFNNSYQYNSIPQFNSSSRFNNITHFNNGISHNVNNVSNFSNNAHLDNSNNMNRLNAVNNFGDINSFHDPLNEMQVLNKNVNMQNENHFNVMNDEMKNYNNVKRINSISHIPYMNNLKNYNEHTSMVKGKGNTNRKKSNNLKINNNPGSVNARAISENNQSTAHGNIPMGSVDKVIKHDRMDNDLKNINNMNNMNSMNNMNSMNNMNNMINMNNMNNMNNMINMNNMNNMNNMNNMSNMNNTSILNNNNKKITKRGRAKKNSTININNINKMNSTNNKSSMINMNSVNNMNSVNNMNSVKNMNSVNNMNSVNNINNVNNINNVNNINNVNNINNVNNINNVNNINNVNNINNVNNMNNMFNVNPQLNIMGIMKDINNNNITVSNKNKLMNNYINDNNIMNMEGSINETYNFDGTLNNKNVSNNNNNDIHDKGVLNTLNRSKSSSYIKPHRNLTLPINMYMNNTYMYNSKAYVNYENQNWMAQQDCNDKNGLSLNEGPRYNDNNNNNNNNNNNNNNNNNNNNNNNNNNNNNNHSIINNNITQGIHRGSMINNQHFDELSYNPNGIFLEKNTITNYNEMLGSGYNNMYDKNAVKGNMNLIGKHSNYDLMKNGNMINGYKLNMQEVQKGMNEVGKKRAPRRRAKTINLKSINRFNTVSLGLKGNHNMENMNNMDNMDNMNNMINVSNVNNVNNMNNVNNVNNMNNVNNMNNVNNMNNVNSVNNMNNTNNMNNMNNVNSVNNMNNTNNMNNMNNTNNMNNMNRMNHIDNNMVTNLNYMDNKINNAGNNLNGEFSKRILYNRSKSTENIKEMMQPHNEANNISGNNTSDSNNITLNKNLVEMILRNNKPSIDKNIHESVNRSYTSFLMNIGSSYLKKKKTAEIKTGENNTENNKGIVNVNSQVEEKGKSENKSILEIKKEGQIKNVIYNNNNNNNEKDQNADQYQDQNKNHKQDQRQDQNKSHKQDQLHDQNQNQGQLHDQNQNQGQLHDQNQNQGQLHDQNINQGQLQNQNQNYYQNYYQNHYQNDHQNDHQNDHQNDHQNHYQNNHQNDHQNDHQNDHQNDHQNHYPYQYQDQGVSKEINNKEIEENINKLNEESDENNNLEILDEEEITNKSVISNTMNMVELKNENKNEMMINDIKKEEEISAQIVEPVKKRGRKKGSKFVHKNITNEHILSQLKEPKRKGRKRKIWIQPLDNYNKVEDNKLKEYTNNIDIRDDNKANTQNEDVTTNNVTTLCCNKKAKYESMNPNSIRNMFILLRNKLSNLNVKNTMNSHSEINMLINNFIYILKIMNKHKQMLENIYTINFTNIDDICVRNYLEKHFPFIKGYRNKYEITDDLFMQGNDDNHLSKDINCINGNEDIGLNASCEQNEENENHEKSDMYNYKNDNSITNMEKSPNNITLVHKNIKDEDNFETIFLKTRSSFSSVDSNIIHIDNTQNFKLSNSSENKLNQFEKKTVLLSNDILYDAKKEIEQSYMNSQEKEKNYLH
UniProt Q8IJG6: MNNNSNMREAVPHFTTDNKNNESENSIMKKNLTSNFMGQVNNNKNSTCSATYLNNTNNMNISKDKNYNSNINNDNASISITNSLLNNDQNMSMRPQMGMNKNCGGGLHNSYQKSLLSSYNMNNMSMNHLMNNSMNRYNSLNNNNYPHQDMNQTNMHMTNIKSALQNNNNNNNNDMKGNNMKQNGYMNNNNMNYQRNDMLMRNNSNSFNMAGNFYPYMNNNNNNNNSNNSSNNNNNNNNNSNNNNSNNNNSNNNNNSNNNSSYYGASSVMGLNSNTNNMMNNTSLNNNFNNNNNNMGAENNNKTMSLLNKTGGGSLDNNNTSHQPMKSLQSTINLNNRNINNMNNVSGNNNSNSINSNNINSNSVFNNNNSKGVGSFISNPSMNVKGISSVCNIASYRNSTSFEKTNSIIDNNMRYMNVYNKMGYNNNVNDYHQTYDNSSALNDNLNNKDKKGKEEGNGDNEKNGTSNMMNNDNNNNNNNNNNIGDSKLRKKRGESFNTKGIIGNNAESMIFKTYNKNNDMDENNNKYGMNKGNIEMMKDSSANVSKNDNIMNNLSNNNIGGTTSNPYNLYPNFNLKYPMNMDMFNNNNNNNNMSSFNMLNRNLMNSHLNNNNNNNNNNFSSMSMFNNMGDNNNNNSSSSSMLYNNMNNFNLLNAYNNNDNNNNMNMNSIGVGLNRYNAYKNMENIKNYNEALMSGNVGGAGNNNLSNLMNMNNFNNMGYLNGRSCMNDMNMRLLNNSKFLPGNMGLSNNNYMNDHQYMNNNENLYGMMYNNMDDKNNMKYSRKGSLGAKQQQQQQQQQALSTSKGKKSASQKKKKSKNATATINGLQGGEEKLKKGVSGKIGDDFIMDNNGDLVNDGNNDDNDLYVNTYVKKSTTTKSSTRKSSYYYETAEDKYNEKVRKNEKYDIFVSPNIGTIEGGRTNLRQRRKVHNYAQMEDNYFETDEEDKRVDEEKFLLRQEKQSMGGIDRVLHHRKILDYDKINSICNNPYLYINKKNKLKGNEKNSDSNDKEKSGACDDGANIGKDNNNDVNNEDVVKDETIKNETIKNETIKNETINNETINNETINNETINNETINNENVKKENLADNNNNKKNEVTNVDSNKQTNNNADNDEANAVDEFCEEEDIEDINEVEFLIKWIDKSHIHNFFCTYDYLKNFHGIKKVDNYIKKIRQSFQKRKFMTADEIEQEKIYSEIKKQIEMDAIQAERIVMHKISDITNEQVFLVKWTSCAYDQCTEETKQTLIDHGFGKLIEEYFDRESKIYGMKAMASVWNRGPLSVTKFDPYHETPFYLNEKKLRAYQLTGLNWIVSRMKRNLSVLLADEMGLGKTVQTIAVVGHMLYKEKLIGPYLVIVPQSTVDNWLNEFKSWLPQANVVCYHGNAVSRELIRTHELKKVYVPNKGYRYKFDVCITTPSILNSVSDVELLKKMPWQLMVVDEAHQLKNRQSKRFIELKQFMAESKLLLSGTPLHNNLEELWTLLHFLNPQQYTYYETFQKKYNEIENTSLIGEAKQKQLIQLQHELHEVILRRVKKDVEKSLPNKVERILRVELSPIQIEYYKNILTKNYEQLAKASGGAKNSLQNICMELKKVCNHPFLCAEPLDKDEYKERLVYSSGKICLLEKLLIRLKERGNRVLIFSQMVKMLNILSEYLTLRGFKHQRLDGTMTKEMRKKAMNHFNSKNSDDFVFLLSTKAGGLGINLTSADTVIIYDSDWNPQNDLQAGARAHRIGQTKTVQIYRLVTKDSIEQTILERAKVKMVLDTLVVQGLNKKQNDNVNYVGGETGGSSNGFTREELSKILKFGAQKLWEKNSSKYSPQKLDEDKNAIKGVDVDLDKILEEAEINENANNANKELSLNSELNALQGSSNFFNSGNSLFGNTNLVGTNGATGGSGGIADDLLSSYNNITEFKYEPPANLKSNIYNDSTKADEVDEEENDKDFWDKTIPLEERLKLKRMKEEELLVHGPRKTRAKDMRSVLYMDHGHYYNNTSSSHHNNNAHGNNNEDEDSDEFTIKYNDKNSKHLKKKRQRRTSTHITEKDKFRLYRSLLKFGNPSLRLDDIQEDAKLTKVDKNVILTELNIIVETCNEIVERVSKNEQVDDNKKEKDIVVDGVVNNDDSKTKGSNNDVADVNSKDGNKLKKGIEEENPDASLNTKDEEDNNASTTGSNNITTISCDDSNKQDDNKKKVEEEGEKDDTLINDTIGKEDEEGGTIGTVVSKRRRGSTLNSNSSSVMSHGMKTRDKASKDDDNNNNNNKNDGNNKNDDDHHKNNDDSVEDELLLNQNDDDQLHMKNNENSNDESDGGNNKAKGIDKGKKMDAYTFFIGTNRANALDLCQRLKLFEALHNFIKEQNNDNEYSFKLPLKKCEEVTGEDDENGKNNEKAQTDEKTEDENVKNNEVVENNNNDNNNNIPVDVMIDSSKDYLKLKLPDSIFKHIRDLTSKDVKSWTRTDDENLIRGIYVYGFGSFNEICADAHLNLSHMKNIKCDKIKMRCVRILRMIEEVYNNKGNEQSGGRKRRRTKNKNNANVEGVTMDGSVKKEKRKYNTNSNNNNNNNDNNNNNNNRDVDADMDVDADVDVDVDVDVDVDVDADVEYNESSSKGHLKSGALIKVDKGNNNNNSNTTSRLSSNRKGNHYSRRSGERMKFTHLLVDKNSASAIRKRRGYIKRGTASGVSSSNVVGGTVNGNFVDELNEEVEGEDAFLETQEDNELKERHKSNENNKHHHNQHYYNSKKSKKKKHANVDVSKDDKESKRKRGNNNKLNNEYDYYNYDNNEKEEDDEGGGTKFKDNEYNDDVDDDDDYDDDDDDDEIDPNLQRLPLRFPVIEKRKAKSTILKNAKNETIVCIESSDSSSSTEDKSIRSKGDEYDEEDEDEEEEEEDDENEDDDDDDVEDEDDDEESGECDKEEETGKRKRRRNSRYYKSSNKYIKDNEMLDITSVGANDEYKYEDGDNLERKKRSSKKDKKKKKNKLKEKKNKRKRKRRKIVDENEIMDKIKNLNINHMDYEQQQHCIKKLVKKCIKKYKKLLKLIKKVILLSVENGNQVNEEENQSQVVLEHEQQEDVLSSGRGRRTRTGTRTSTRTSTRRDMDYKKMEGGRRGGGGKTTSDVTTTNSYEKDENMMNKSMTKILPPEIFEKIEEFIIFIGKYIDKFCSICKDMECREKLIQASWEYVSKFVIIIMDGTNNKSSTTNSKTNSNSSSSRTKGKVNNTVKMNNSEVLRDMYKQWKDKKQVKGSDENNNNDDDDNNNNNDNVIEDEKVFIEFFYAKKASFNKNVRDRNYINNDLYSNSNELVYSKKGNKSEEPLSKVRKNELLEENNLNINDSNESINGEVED
UniProt C0H571: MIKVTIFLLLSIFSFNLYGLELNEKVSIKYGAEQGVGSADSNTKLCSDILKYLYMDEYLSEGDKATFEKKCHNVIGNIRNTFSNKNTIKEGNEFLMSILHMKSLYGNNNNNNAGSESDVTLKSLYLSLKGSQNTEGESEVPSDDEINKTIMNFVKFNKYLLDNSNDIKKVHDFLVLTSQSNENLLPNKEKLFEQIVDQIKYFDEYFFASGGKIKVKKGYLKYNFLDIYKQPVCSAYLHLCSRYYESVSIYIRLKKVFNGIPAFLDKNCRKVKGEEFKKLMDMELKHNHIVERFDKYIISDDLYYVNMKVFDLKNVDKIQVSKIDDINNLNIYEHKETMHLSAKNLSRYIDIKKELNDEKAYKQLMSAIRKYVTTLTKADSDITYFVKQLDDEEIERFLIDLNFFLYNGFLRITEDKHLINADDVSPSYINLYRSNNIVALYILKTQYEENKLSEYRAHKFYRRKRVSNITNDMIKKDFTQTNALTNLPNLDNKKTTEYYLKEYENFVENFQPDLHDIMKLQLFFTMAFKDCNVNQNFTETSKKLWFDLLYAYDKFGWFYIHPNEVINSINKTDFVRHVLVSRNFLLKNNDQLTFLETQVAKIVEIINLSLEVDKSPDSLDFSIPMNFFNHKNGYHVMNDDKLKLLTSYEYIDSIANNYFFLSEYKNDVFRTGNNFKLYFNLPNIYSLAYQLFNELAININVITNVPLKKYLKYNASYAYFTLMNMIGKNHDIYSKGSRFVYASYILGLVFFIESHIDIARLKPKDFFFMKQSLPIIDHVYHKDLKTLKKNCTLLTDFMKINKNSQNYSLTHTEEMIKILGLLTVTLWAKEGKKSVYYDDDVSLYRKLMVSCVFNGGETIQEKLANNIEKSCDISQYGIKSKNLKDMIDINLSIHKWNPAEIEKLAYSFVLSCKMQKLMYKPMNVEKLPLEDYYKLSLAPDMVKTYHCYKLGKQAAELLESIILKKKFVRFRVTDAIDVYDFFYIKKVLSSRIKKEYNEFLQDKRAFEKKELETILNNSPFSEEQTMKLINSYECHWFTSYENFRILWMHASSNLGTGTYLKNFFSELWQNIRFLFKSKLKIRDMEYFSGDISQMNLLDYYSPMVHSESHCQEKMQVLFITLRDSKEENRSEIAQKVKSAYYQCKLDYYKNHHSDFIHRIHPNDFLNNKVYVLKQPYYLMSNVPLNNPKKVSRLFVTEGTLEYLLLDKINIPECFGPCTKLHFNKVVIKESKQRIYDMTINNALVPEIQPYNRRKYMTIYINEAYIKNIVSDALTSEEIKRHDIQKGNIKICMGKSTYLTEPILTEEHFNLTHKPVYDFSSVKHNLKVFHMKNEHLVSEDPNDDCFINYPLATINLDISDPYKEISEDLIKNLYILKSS

No constants are given. Whether binding was seen depends on the method and setting. Binding seen in cells or lysates may run through a third protein. Here binding means that the protein was enriched with, or labelled near, the bait; the list need not be complete. Tags and fused reporters may be left off the sequences shown.

For assay [1], the target named is T1, PfEAF2::GFP (endogenous PfEAF2 tagged with GFP) (P. falciparum (endogenous in 3D7 parasites)) (UniProt C6KTC1).
T1 sequence: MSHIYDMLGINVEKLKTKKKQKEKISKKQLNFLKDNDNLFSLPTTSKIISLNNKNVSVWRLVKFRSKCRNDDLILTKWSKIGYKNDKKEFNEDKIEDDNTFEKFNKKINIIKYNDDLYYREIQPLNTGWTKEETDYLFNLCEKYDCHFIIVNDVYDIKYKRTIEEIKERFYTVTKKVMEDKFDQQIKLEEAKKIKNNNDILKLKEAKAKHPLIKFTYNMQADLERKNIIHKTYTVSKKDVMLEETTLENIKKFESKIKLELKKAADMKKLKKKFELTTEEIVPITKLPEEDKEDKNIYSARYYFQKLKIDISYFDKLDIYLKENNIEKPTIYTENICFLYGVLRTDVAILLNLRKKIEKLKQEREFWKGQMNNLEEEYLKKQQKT
Briefly: affinity purification with mass spectrometry; single-step pulldown of PfEAF2::GFP with GFP-trap beads from lysates of 10^9 parasites; LC-MS/MS, same SAINT thresholds; three replicates.

The target in assay [2] is T2, PfMYST::PTP (endogenous PfMYST with a C-terminal PTP tag) (P. falciparum (endogenous in 3D7 parasites)) (UniProt Q8III2).
T2 sequence: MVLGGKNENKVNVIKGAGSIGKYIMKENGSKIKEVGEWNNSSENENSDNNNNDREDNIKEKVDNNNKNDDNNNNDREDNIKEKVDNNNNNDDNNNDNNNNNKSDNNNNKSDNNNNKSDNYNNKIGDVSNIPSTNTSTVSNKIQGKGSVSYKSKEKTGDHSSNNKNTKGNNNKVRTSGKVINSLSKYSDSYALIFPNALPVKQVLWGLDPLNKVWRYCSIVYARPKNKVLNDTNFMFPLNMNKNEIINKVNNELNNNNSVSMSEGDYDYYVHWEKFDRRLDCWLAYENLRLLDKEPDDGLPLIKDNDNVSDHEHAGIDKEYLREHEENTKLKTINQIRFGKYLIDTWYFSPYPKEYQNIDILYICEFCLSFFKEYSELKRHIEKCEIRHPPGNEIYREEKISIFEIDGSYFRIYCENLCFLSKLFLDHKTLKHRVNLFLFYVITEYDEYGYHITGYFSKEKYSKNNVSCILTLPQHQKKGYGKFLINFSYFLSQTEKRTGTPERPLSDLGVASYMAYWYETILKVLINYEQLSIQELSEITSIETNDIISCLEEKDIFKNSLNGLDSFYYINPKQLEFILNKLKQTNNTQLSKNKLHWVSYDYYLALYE
Briefly: affinity purification with mass spectrometry; tandem affinity purification (IgG agarose beads, TEV protease, anti-protein C beads) of PfMYST::PTP from nuclear extracts of 10^9 asexual blood-stage parasites in PA150 buffer (150 mM KCl, 20 mM Tris-HCl pH 7.7, 3 mM MgCl2, 0.5 mM DTT, 0.1% Tween 20), 4°C; WT 3D7 as control; LC-MS/MS, SAINT probability above 95%, FDR below 1%; three replicates.

actin-like protein ALP2b: the binding entry in assay [1] is “binds”.
Regarding PfPHD1 (from UniProt Q8IJW2 1-3853), in assay [2], the binding entry is on record as “binds”.
Consider PfSWR1 (from UniProt C0H4W3), for which the binding entry in assay [1] was “binds”.
On to “E3 ubiquitin ligase (PF3D7_0826100) (from UniProt Q8IB94 1-8591)”, for which the binding entry in assay [2] is listed as “binds”.
Take PfTRA1 (from UniProt Q8IES7 1-9271): the binding entry in assay [2] and in assay [1] was “binds” throughout.
For “MORC family protein (PF3D7_1468100) (from UniProt Q8IKF6 1-2558)”, the binding entry in assay [2] is reported as “binds”.
For the substance high mobility group protein B3 (HMGB3), the binding entry in assay [1] is on record as “binds”.
As for “protein with unknown functions (PF3D7_0212100) containing a transcriptional activator LAG-3 family sequence (from UniProt O96201 1-1844)”, the binding result in assay [1] is “binds”.
With “calmodulin (PF3D7_1434200) (from UniProt P62203 1-149)”, the binding result in assay [2] is given as “binds”.
Regarding PfYAF9 (from UniProt C0H4S5), the binding entry in assay [2] and in assay [1] was “binds” in each case.
PfADA2 (from UniProt Q8IJP9): the binding result in assay [2] was “binds”.
With “ISWI (PF3D7_0624600) (from UniProt C6KT82 1-2719)”, the binding result in assay [1] was “binds”.
For “PfCHD1, putative homolog of chromodomain-helicase-DNA-binding protein 1 (from UniProt Q8IJG6 1-3328)”, the binding entry in assay [2] and in assay [1] was “binds” in each case.
On to PfEAF1 (from UniProt Q8ILR9), for which the binding entry in assay [2] and in assay [1] was “binds” throughout.
As to RhopH2 (from UniProt C0H571), in assay [2], the binding entry is “binds”.
